Data: the supplement of paper PMC10331698
± gives the standard deviation of the averaged measurements. Most values lie at the level of the controls, where differences are scatter.

Experiments:
Experiment in all cases: level (log10 ratio to DMSO vehicle control); higher = higher biomarker level / cell amount than vehicle control
[1] = compound: C=C(C)C(=O)OCCC(F)(F)C(F)(F)C(F)(F)C(F)(F)C(F)(F)C(F)(F)F [6:2 Fluorotelomer methacrylate] (in DMSO); details: 2200 nM
Experimental: (§1)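 BioMAP Diversity Plus panel of 12 human primary cell co-culture systems (3C, 4H, LPS, SAg, BT, BF4T, BE3C, CASM3C, HDF3CGF, KF3CT, MyoF, Mphg). Compounds were added 1 h before stimulation and left for 24 h (MyoF 48 h; BT 72 h for soluble read-outs or 6 d for IgG). Biomarkers were read by ELISA, cytotoxicity by SRB, PBMC viability and proliferation by Alamar Blue. Each well value was divided by the mean of 8 DMSO control wells on the same plate and log10 transformed; duplicate blinded samples were tested at 4 concentrations.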

[2] = compound: OCC(F)(F)C(F)(F)C(F)(F)C(F)F [1H,1H,5H-Perfluoropentanol] (in DMSO); details: 2200 nM
Experimental: as §1

[3] = compound: CNS(=O)(=O)C(F)(F)C(F)(F)C(F)(F)C(F)(F)C(F)(F)C(F)(F)C(F)(F)C(F)(F)F [N-Methylperfluorooctanesulfonamide] (in DMSO); details: 2200 nM
Experimental: as §1

[4] = compound: O=C(O)CCC(F)(F)C(F)(F)C(F)(F)F [3:3 Fluorotelomer carboxylic acid] (in DMSO); details: 2200 nM
Experimental: as §1

[5] = compound: FC(F)(F)C(F)(F)CNCC(F)(F)C(F)(F)F [Bis(1H,1H-perfluoropropyl)amine] (in DMSO); details: 2200 nM
Experimental: as §1

[6] = compound: FC(F)(F)COC(OCC(F)(F)F)OCC(F)(F)F [tris(Trifluoroethoxy)methane] (in DMSO); details: 2200 nM
Experimental: as §1

[7] = compound: O=C(O)C(F)(OC(F)(F)C(F)(OC(F)(F)C(F)(OC(F)(F)C(F)(F)C(F)(F)F)C(F)(F)F)C(F)(F)F)C(F)(F)F [Perfluoro-(2,5,8-trimethyl-3,6,9-trioxadodecanoic)acid] (in DMSO); details: 370 nM
Experimental: as §1

[8] = compound: OCCCC(F)(F)C(F)(F)C(F)(F)C(F)(F)C(F)(F)C(F)(F)C(F)(F)C(F)(F)F [3-(Perfluorooctyl)propanol] (in DMSO); details: 2200 nM
Experimental: as §1

[9] = compound: O=S(=O)(O)C(F)(F)C(F)(F)C(F)(F)C(F)(F)F [Perfluorobutanesulfonic acid] (in DMSO)
Experimental: as §1

[10] = compound: O=C(O)C(F)(F)C(F)(F)C(F)(F)OC(F)(C(F)(F)F)C(F)(F)F [Perfluoro-4-isopropoxybutanoic acid] (in DMSO); details: 2200 nM
Experimental: as §1

[11] = compound: O=C(O)C(F)(F)C(F)(F)C(F)(F)C(F)(F)C(F)(F)F [Perfluorohexanoic acid] (in DMSO)
Experimental: as §1

[12] = compound: O=C(O)C(F)(OC(F)(F)C(F)(F)C(F)(F)F)C(F)(F)F [Ammonium perfluoro-2-methyl-3-oxahexanoate] (in Water)
Experimental: as §1

[13] = compound: O=C(O)C(F)(F)C(F)(F)C(F)(F)C(=O)O [Hexafluoroglutaric acid] (in DMSO)
Experimental: as §1

[14] = compound: FC(F)(F)C(F)(F)C(F)(F)C(F)(F)CCI [1H,1H,2H,2H-Perfluorohexyl iodide] (in DMSO); details: 2200 nM
Experimental: as §1

[15] = compound: OCC(F)(F)C(F)(F)C(F)(F)C(F)(F)C(F)(F)C(F)(F)F [6:1 Fluorotelomer alcohol] (in DMSO); details: 2200 nM
Experimental: as §1

[16] = compound: OCC(F)(F)OC(F)(F)C(F)(F)OC(F)(F)CO [1H,1H,8H,8H-Perfluoro-3,6-dioxaoctane-1,8-diol] (in DMSO); details: 2200 nM
Experimental: as §1

[17] = compound: OCC(F)(F)C(F)(F)C(F)(F)C(F)(F)C(F)(F)C(F)(F)CO [1H,1H,8H,8H-Perfluorooctane-1,8-diol] (in DMSO); details: 2200 nM
Experimental: as §1

Test System	level (log10) [1]	level (log10) [2]	level (log10) [3]	level (log10) [4]	level (log10) [5]	level (log10) [6]	level (log10) [7]	level (log10) [8]	level (log10) ([9]; 2200 nM)	level (log10) ([9]; 6700 nM)	level (log10) ([9]; 20000 nM)	level (log10) ([9]; 60000 nM)	level (log10) [10]	level (log10) ([11]; 2200 nM)	level (log10) ([11]; 6700 nM)	level (log10) ([11]; 20000 nM)	level (log10) ([11]; 60000 nM)	level (log10) ([12]; 2200 nM)	level (log10) ([12]; 6700 nM)	level (log10) ([12]; 20000 nM)	level (log10) ([12]; 60000 nM)	level (log10) ([13]; 2200 nM)	level (log10) ([13]; 6700 nM)	level (log10) ([13]; 20000 nM)	level (log10) ([13]; 60000 nM)	level (log10) [14]	level (log10) [15]	level (log10) [16]	level (log10) [17]
BF4T:MMP-9	-0.035 ± 0.047	0.0025 ± 0.013	0.0035 ± 0.035	0.017 ± 0.081	0.006 ± 0.031	0.0265 ± 0.056	0.0205 ± 0.011	0.017 ± 0.092	0.007 ± 0.0099	-0.004 ± 0.0014	-0.0065 ± 0.028	-0.013 ± 0.02	0.026 ± 0.037	0.004 ± 0.025	0.0215 ± 0.0035	-0.01 ± 0.027	0.0215 ± 0.018	0.0405 ± 0.04	0.0275 ± 0.005	0.047 ± 0.017	0.075 ± 0.013	-0.0065 ± 0.025	-0.003 ± 0.0014	-0.0135 ± 0.012	0.007 ± 0.0028	0.0335 ± 0.026	0.03 ± 0.061	-0.005 ± 0.045	-0.0075 ± 0.035
BF4T:PAI-I	0.0045 ± 0.021	0.0045 ± 0.005	0.012 ± 0.017	0.014 ± 0.027	0.0095 ± 0.011	0.0105 ± 0.028	0.0035 ± 0.00071	0.005 ± 0.042	0.003 ± 0.0028	-0.0075 ± 0.0092	-0.005 ± 0.0042	0.0015 ± 0.005	0.0115 ± 0.018	0.003 ± 0.0085	0.011	0.004 ± 0.0028	0.0145 ± 0.0064	0.0035 ± 0.0021	-0.004 ± 0.0028	0.001 ± 0.0042	0.005 ± 0.0028	0.0045 ± 0.035	-0.0085 ± 0.022	-0.002 ± 0.021	0.0165 ± 0.011	0.016 ± 0.0028	-0.114 ± 0.15	0.008 ± 0.021	0.0215 ± 0.0021
BF4T:SRB	0.0035 ± 0.019	0.005 ± 0.0057	-0.0005 ± 0.011	0.002 ± 0.016	-0.0045 ± 0.0092	0.001 ± 0.014	0.0105 ± 0.015	-0.007 ± 0.0057	0.007 ± 0.018	-0.006 ± 0.0099	-0.0085 ± 0.005	-0.009 ± 0.0028	0 ± 0.0057	-0.0015 ± 0.015	-0.0025 ± 0.00071	-0.0095 ± 0.0092	0.0105 ± 0.0064	0.006 ± 0.0099	-0.003 ± 0.013	0 ± 0.0014	0.0135 ± 0.022	0.005 ± 0.02	-0.005 ± 0.0028	-0.0065 ± 0.0021	-0.0015 ± 0.0078	-0.0035 ± 0.0092	0.0245 ± 0.037	0.0035 ± 0.021	0 ± 0.0057
BF4T:tPA	-0.017 ± 0.0042	-0.0025 ± 0.0035	0.0505 ± 0.044	0.0145 ± 0.047	-0.027 ± 0.065	0.014 ± 0.047	0.0075 ± 0.022	0.0135 ± 0.04	-0.0105 ± 0.015	-0.0115 ± 0.021	0.0025 ± 0.0092	0.0115 ± 0.018	0.016 ± 0.059	0.002 ± 0.031	-0.0045 ± 0.0064	-0.0035 ± 0.019	0.0055 ± 0.013	0.0505 ± 0.015	0.0405 ± 0.0078	0.0575 ± 0.033	0.0185 ± 0.019	0.013 ± 0.079	-0.0195 ± 0.018	-0.0205 ± 0.028	-0.0045 ± 0.011	0.0275 ± 0.039	-0.0015 ± 0.028	0.009 ± 0.045	0.007 ± 0.011
BF4T:uPA	0.022 ± 0.017	0.006 ± 0.013	0.021 ± 0.021	-0.003 ± 0.013	-0.013 ± 0.017	0.0045 ± 0.013	0.0095 ± 0.013	-0.003 ± 0.018	-0.0225 ± 0.044	-0.026 ± 0.02	0.006 ± 0.0014	-0.014 ± 0.027	0.004 ± 0.02	0 ± 0.0071	0.01 ± 0.0028	0.004	0.0105 ± 0.0078	0.013 ± 0.021	-0.0025 ± 0.011	-0.0005 ± 0.0078	0.0035 ± 0.022	0.0085 ± 0.043	-0.009 ± 0.016	-0.0015 ± 0.015	-0.003 ± 0.0028	0.0055 ± 0.035	-0.003 ± 0.0014	0 ± 0.021	-0.004 ± 0.0085
BT:B cell Proliferation	-0.008 ± 0.0028	0.029 ± 0.05	0.0015 ± 0.033	0.011 ± 0.03	0.0145 ± 0.021	-0.025 ± 0.04	-0.0085 ± 0.0064	0.012 ± 0.0028	0.0085 ± 0.0021	-0.0025 ± 0.016	0.0085 ± 0.016	0.038 ± 0.0014	0.003 ± 0.038	0.0065 ± 0.05	-0.047 ± 0.048	-0.0035 ± 0.042	0.0275 ± 0.063	-0.237 ± 0.045	-0.239 ± 0.0085	-0.256 ± 0.011	-0.248 ± 0.0035	-0.0195 ± 0.005	-0.005 ± 0.0042	-0.0035 ± 0.0078	0.011 ± 0.017	0.0065 ± 0.0021	0.0235 ± 0.0035	-0.015 ± 0.023	0.0075 ± 0.019
BT:PBMC Cytotoxicity	0.012	-0.0115 ± 0.023	0.007 ± 0.0071	0.0085 ± 0.016	0.0285 ± 0.00071	0.004 ± 0.027	0.009 ± 0.04	0.017 ± 0.025	0.033 ± 0.045	0.03 ± 0.044	0.039 ± 0.027	0.057 ± 0.0057	-0.0145 ± 0.005	0.005 ± 0.042	-0.024 ± 0.028	-0.0405 ± 0.028	0.004 ± 0.0057	-0.0955 ± 0.025	-0.083 ± 0.016	-0.095 ± 0.0099	-0.0905 ± 0.023	0.0125 ± 0.03	0.019 ± 0.027	-0.017 ± 0.0071	0.005 ± 0.014	-0.002 ± 0.017	0.0315 ± 0.0021	0.013 ± 0.011	0.0285 ± 0.0064
